Results are given in words; binding and its absence hold for the method and conditions named. For some assays here: In cells and extracts the contact can be indirect. Some results given as binding are weak or reduced against the parent protein; the word gives no strength.
Key:
[1] = biological target: GABAB1 receptor subunit (mouse (endogenous in C57BL/6J hippocampus)) (UniProt Q9WV18); experiment: native gel or EMSA; antibody shift assay: membrane preparations pre-incubated 1 h at 4°C with anti-GABAB1 or anti-GABAB2 antibody, BN-PAGE then SDS-PAGE and Western blotting
[2] = biological target: GABAB1 receptor subunit (mouse (endogenous in C57BL/6J hippocampus)) (UniProt Q9WV18); experiment: proximity ligation; in situ PLA on fixed 30 μm mouse brain slices (hippocampus) with mouse anti-GABAB1 and rabbit anti-GABAB2 primary antibodies; negative control with no primary antibody

Chains of the proteins cited; added tags and fusions are not shown. Residues count along the entry.
UniProt Q9WV18, residues 20-960: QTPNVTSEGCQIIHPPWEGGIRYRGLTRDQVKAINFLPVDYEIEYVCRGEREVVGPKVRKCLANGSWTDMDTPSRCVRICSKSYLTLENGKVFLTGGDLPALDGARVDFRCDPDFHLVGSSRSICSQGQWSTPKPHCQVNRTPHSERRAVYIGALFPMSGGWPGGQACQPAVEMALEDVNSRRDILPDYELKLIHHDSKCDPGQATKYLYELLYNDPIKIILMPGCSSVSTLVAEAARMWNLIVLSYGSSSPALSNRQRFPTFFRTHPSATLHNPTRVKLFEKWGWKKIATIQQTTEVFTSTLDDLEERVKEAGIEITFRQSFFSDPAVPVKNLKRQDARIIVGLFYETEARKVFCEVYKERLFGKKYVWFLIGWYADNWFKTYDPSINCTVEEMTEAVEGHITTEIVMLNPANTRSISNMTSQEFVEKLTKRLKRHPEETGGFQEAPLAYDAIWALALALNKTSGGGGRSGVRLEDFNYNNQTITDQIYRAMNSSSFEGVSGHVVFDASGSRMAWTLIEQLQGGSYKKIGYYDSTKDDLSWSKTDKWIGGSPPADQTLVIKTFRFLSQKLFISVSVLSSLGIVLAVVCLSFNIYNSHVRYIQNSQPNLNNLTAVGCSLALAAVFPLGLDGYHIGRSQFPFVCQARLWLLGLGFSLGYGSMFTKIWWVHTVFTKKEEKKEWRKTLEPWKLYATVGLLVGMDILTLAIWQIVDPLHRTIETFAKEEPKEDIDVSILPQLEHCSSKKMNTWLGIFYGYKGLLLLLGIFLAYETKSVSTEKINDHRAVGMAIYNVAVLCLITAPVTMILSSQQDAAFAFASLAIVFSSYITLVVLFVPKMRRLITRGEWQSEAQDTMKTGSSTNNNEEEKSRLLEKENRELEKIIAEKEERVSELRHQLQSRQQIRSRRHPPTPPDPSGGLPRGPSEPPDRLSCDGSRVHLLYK

binding [1]: binds
binding [2]: binds
B1: GABAB2 receptor subunit (receptor, UniProt Q80T41 41-940)
chain: WARGAPRPPPSSPPLSIMGLMPLTKEVAKGSIGRGVLPAVELAIEQIRNESLLRPYFLDLRLYDTECDNAKGLKAFYDAIKYGPNHLMVFGGVCPSVTSIIAESLQGWNLVQLSFAATTPVLADKKKYPYFFRTVPSDNAVNPAILKLLKHFRWRRVGTLTQDVQRFSEVRNDLTGVLYGEDIEISDTESFSNDPCTSVKKLKGNDVRIILGQFDQNMAAKVFCCAFEESMFGSKYQWIIPGWYEPAWWEQVHVEANSSRCLRRSLLAAMEGYIGVDFEPLSSKQIKTISGKTPQQYEREYNSKRSGVGPSKFHGYAYDGIWVIAKTLQRAMETLHASSRHQRIQDFNYTDHTLGRIILNAMNETNFFGVTGQVVFRNGERMGTIKFTQFQDSREVKVGEYNAVADTLEIINDTIRFQGSEPPKDKTIILEQLRKISLPLYSILSALTILGMIMASAFLFFNIKNRNQKLIKMSSPYMNNLIILGGMLSYASIFLFGLDGSFVSEKTFETLCTVRTWILTVGYTTAFGAMFAKTWRVHAIFKNVKMKKKIIKDQKLLVIVGGMLLIDLCILICWQAVDPLRRTVERYSMEPDPAGRDISIRPLLEHCENTHMTIWLGIVYAYKGLLMLFGCFLAWETRNVSIPALNDSKYIGMSVYNVGIMCIIGAAVSFLTRDQPNVQFCIVALVIIFCSTITLCLVFVPKLITLRTNPDAATQNRRFQFTQNQKKEDSKTSTSVTSVNQASTSRLEGLQSENHRLRMKITELDKDLEEVTMQLQDTPEKTTYIKQNHYQELNDILSLGNFTESTDGGKAILKNHLDQNPQLQWNTTEPSRTCKDPIEDINSPEHIQRRLSLQLPILHHAYLPSIGGVDASCVSPCVSPTASPRHRHVPPSFRVMVSGL

— publication PMC4609755
